The record followed here is patent US20230399408A1 (AB THERAPEUTICS, published 2023).

Chains of the proteins cited; added tags and fusions are not shown. Residues count along the entry.
UniProt P08581, residues 25-932: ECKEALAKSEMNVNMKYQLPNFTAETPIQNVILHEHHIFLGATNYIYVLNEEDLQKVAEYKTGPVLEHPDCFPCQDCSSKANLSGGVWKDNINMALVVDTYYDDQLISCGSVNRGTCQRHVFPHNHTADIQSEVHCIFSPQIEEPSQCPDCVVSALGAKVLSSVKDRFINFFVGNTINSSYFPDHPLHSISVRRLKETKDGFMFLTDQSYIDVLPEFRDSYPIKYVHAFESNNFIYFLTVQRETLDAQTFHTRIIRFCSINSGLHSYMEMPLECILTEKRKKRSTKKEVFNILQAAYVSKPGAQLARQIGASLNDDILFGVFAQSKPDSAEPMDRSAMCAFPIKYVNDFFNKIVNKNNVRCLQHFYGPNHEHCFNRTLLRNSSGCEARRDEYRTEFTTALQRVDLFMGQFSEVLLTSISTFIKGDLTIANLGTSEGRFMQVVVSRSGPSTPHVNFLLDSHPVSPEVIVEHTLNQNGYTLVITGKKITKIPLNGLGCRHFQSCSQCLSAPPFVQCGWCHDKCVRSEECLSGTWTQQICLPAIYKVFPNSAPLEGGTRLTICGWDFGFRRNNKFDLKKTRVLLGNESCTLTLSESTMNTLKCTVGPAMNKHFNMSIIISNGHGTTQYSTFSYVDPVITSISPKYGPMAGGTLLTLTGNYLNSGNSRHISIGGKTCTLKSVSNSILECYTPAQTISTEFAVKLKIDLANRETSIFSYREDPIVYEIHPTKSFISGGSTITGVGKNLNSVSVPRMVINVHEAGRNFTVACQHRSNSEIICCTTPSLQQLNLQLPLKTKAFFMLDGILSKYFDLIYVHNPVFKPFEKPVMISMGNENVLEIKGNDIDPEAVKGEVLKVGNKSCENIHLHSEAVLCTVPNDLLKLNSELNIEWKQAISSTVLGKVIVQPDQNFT

Assay [1] has as its target T1, c-MET-His tag protein (human, UniProt P08581 25-932).
T1 construct: also called cMET-HIS tagged; not shown: His tag
The assay can be described thus: BLI epitope binning, cMET-His captured on HIS probes.

The target of assay [2] is T1, c-MET-His tag protein. The assay can be described thus: BLI (Probelife Gator), cMET-His on HIS probe after 1A12-cMET-VHH-Fc, second antibody at 5 ug/ml.
Assay [3] concerns the target T1, c-MET-His tag protein. The assay can be described thus: BLI (Probelife Gator), cMET-His on HIS probe, first antibody at 15 ug/ml.
The target of assay [4] is monkey cMET (monkey (Cynomolgus sp.)). Kind of assay: binding ELISA, plate coated with monkey cMET at 1 ug/mL, clone at 10 ug/mL, biotinylated anti-c-Myc 9E-10 and streptavidin detection.

These are yes or no findings as the source states them, for the method shown. Some binding calls cover weakened binding; strength is not graded here. For some of these results: Tags and fused reporters may be left off the sequences shown.

B1: cMET-1H1 VHH-Fc (Fc fusion, not shown: a dimerising Fc or GST)
chain: QVQLVESGGGLVQPGGSLKLSCAVSASLFSINTMGWFRQGPGKEREFVAAISWSGGNYYATFARGRFTISSEDAKDTVYLQMDNLKPEDTAVYFCGADRWGTGSMNAPDYDYWGRGTLVTVSS
Consider B1, for which the binding entry in the assay with c-MET-His tag protein [1], with c-MET-His tag protein [2] and with c-MET-His tag protein [3] was “binds” throughout.

B2: 1A12 (VHH)
VHH: QVQLVESGGGLVQPGGSLRLSCAASGFTFNSYWMYWVRLAPGKGIEWVSATDTRGQNTYYTDSVKGRFTISRDNAKNMVSLQMNNLKSEDTAVYYCALGNRWGTFPNRGPGTLVTVSS
notes: it is not the VHH-Fc fusion m11; also called cMET-1A12; clone 1A12
Regarding B2, in assay [4], the binding entry is listed as “binds”.
